Experimental data taken from paper PMC2670979.

Amino acid sequences for entries named in this document (tags omitted). A change or cut given only in a name is not applied to a line headed by its entry.
UniProt Q8IXI2: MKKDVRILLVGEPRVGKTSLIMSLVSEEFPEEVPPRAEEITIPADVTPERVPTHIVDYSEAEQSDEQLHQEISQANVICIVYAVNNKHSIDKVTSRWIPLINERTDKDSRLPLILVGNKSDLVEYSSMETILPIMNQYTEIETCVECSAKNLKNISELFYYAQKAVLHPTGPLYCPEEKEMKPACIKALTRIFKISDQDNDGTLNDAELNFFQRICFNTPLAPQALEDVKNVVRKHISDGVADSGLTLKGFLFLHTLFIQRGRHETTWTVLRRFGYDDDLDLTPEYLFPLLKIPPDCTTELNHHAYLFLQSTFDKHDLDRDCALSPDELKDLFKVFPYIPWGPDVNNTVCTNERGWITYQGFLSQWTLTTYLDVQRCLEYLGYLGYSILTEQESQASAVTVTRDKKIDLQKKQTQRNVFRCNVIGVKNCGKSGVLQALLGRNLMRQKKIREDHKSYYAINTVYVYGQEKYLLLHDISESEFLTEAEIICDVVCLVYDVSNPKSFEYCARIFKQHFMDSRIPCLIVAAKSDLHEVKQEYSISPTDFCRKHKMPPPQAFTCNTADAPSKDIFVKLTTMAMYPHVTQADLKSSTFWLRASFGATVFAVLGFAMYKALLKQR
UniProt Q12840: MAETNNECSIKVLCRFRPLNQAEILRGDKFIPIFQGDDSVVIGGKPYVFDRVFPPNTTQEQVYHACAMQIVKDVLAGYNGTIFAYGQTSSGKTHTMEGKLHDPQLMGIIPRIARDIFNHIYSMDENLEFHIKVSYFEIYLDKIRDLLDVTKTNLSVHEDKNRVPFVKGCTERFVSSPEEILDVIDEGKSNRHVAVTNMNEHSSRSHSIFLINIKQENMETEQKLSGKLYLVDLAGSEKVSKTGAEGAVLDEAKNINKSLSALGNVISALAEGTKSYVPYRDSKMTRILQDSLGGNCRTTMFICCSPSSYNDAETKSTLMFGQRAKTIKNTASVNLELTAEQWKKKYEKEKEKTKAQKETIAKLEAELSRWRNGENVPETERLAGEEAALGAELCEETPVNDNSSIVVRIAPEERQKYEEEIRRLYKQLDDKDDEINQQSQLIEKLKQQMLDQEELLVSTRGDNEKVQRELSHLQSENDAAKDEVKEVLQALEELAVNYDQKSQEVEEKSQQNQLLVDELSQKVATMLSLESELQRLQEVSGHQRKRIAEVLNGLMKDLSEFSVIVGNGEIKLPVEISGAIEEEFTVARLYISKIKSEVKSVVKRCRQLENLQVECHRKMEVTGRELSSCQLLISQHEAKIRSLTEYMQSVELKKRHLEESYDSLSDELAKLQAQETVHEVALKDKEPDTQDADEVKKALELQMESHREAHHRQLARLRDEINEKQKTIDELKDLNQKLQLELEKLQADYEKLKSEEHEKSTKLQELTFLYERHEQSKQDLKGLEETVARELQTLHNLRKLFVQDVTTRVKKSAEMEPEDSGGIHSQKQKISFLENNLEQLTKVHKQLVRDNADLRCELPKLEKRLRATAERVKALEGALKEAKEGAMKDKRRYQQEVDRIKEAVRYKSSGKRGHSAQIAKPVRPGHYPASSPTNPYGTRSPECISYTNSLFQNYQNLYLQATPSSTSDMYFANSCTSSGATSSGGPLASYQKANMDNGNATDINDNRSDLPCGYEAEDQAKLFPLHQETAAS
UniProt P33176: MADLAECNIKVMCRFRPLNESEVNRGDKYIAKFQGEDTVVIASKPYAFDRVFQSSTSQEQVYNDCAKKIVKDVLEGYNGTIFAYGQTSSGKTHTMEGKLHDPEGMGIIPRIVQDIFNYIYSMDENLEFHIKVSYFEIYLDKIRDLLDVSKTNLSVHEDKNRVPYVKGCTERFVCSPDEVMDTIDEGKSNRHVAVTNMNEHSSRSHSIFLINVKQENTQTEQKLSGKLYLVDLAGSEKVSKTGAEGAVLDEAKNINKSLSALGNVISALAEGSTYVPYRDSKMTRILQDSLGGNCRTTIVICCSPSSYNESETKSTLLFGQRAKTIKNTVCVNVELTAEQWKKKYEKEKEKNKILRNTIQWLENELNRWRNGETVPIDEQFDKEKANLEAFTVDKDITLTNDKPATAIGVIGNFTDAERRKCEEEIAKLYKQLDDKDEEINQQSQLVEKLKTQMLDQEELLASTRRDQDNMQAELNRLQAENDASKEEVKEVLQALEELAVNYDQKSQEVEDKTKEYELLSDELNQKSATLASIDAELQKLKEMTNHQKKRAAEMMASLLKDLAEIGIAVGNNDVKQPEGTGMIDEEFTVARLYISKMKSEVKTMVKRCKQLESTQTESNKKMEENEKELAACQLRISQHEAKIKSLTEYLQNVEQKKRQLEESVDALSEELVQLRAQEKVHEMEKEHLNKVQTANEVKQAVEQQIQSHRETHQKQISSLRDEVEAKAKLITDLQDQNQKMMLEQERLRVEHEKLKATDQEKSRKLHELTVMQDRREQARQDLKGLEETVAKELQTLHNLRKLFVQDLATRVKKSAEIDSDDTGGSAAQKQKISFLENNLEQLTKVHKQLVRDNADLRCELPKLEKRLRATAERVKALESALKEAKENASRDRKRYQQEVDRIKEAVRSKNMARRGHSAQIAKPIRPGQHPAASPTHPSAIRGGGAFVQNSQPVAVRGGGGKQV
UniProt O60282: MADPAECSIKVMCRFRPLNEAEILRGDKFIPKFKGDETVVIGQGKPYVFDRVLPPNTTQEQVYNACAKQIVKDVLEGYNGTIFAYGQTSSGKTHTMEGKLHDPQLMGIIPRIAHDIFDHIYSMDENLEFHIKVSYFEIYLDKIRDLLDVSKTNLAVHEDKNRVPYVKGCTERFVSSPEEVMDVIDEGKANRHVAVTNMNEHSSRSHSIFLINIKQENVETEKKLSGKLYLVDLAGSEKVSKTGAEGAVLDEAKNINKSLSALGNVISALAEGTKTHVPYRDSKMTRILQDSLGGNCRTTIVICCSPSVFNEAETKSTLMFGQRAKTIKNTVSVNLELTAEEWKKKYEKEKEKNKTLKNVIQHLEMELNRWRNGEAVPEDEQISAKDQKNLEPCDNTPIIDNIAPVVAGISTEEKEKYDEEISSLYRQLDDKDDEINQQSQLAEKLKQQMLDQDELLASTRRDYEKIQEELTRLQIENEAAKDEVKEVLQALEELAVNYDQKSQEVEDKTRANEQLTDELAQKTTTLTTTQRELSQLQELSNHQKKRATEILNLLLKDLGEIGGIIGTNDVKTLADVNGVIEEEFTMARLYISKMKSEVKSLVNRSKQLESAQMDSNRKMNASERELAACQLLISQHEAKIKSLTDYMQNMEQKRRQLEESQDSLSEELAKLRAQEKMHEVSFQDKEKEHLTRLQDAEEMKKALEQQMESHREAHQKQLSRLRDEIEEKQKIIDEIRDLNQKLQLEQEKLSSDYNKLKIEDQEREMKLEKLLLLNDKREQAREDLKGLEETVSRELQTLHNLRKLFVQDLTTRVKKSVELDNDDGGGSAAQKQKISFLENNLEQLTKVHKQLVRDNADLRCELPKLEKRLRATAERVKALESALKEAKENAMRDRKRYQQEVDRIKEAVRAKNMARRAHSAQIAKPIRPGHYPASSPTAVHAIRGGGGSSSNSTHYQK

Experiments:
GST-Miro1 WT [1] = molecular target: GST-Miro1 WT (UniProt Q8IXI2); assay: pull-down; 20 ug GST fusion protein (or GST alone) on glutathione sepharose beads; 2.5 ul of one 35S-labelled in vitro translated protein; 1-2 hr at 4°C; 50 mM HEPES, 125 mM NaCl, 5 mM H-EDTA; no other proteins in the system; no added Ca2+, repeated with 2 mM Ca2+; phosphor storage screen; only the target purified
GST-Miro1 WT [2] = molecular target: GST-Miro1 WT (UniProt Q8IXI2); assay: pull-down; as a1 but with KIF5C, TRAK2 (1-700) and GST-Miro1 (WT or ΔEF) all three present together; with and without Ca2+; only the target purified
GST-Miro1 ΔEF [3] = molecular target: GST-Miro1 ΔEF (UniProt Q8IXI2); assay: as above
GST-Miro1 ΔEF [4] = molecular target: GST-Miro1 ΔEF (UniProt Q8IXI2); assay: pull-down; 20 ug GST fusion protein (or GST alone) on glutathione sepharose beads; 2.5 ul of one 35S-labelled in vitro translated protein; 1-2 hr at 4°C; 50 mM HEPES, 125 mM NaCl, 5 mM H-EDTA; no other proteins in the system; no added Ca2+, repeated with 2 mM Ca2+; phosphor storage screen; only the target purified

binding (GST-Miro1 WT [1])	binding (GST-Miro1 WT [2])	binding (GST-Miro1 ΔEF [3])	binding (GST-Miro1 ΔEF [4])	Substance
binds				KIF5A (from UniProt Q12840 1-1032)
binds				KIF5B (from UniProt P33176 1-963)
binds	binds	binds	binds	KIF5C (from UniProt O60282 1-957)

No constants are given. Whether binding was seen depends on the method and setting. In cells and extracts the contact can be indirect. Binding can be weak; no strength is given.
